Results published in paper PMC6449940, “The Cdc42 effectors Gic1 and Gic2 regulate polarized post-Golgi secretion” (Cell & Bioscience, 2019).
Results are given in words; binding and its absence hold for the method and conditions named. In cells and extracts the contact can be indirect. Some entries that bind do so weakly or less than the wild type. Tags and fused reporters may be left off the sequences shown.

Protein sequences, listed by entry. Tags and fused reporters are not part of them.
UniProt P38261: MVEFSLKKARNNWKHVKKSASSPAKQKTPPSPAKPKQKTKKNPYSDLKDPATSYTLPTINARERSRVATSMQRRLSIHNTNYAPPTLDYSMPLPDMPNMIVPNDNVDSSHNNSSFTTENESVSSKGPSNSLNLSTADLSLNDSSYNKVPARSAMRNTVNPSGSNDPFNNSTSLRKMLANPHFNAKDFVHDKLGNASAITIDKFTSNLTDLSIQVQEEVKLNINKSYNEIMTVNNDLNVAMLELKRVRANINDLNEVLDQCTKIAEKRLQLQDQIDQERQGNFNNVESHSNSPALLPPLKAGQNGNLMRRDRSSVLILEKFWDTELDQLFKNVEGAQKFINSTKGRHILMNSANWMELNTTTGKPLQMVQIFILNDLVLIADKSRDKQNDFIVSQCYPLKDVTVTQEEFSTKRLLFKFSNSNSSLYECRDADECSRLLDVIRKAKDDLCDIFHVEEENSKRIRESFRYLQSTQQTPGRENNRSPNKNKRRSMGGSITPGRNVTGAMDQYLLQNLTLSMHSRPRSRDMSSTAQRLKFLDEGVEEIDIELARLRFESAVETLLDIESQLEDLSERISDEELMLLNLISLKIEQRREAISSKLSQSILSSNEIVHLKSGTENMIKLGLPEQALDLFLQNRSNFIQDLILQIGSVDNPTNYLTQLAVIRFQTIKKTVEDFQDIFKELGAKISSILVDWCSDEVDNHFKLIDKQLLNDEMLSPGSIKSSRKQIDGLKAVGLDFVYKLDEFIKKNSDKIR

T1: GFP-tagged Gic2 (S. cerevisiae (budding yeast)) (UniProt Q06648)
T1 sequence: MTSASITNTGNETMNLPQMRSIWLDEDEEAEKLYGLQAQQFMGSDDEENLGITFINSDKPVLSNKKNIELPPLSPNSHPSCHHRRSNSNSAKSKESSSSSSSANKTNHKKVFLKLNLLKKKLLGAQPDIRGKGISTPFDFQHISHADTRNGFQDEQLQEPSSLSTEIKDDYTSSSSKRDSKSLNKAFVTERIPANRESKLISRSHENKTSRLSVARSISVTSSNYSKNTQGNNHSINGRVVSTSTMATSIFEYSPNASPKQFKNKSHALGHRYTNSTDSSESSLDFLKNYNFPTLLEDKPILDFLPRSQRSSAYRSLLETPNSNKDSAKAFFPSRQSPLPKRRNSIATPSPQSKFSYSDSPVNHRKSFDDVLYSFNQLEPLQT


Biological target: T1, GFP-tagged Gic2 (S. cerevisiae (budding yeast))
Assay: co-IP; yeast lysates; immunoprecipitation of Gic2-GFP with polyclonal anti-GFP antibody, blot with anti-myc monoclonal antibody

Row | binding | Molecule
1 | binds | Exo84-myc (from UniProt P38261 1-753)
2 | binds | Sec8-myc (protein, UniProt P32855 1-1065) MDYLKPAQKGRRRGLSINSLSETQQSAMNSSLDHLQNDLNRINLQWNRILSDNTNPLELALAFLDDTSVGLGHRYEEFNQLKSQIGSHLQDVVNEHSQVFNTNVASYGKAVSSIMQAQEQTLNLKNCLKEANEKITTDKGSLQELNDNNLKYTKMIDVLVNIEELLQIPEKIEENIRKENFHQVQILLERGFILMNNKSLKTVEILKPINQQLELQEHLLFNNLIEEIHDIMYSKSNKTNFTRVTNNDIFKIISISHNGFTSLENYLYNIVNIDIMEHSKTINKNLEQFIHDQSLNKGNIMLQENAATQAPLAPSRNQENEGFNRIGFLLKTINNINKLPVAFNIITERAKEEIHNIIVKSTESIRSKHPSLLKMATSLKNDNHFGLPVQDILSIILRECFWEIFLKLLYAIQCHRAIFEMSNILQPTSSAKPAFKFNKIWGKLLDEIELLLVRYINDPELISSNNGSIKPINGATNNAPTLPKRKNPKIFSLEYNIEDNSSVKDQAFELKALLKDIFPGFSVSSNMDLDSIYVKDESFEQDEPLVPPSVFNMKVILDPFLLFTQSTSTIVPSVLTQNTISSLTFFDDYMNKSFLPKIQMTMDYLFTVEVESNNPYALELSDENHNIFKTALDFQRLFYNLLNVFNTANTFREKISYCILDLLNHFYNYYLGLFNSLIGTSDRHLTRKIITAWLQNGILMDQEQKILNGDETLFHEESIELFKEIPHFYQAGKGLSKSDLFNNLTLDTILQFSASVLWILNWLPGLKKAINIDEVSQEPMLDADRLRSSWTFSESMDLNYSNPSSSPNSLGNLKILLDDKASKKFDETIDGFKTLKFKLITILRFNIRALCIYDIGSFFQNTKIWNMDVGSIELDQNIASLISELRRTESKLKQQLPEKEKNSIFIGLDIVNNYALIKGAKSIKVLNHNGIKKMLRNVNVLQHAYRNLSSEPSKINMNVTMNFYSLCGSSEAELFEYIKDNELPHCSVEDLKTILRLQFSEEMHRQLKRQSTSSTKGSIKPSNKRYTEALEKLSNLEKEQSKEGARTKIGKLKSKLNAVHTANEK
